Test results from PubChem BioAssay AID485314 (National Center for Advancing Translational Sciences (NCATS), 2010).
Out of some 340,000 compounds screened, about 4,500 (1.3%) were called active. Inconclusive results, whose numbers are uncertain, are shown with a selection of clear calls. Calls come from the whole dose curve; as a rule, active = well fitted inhibition curve with a large enough effect; inconclusive = small, poorly fitted or top-dose-only effect, or another doubt; inactive = no such curve, though single readings can be large or run the other way. A potency beside an inconclusive call is a rough fit, not a confirmed value.

Biological target: DNA polymerase beta (Homo sapiens) (UniProt P06746)
Assay: qHTS Assay for Inhibitors of DNA Polymerase Beta
Conditions: Pol beta primer extension/strand displacement, fluorescence kinetic; activity change, negative = inhibition: at 114 µM (top of the series)
Summary of the method: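 Values derive from four-parameter Hill fits of normalized kinetic data: reads at 0 and 10 min following addition of 50 nM substrate to 10 nM Pol beta preincubated 15 min with compound.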
% is set by controls: 0 for no effect and ±100 for the full control effect; potency is the fitted concentration of half-maximal effect.

**Q.** `Cc1ccccc1Nc1c(-c2ccc(Cl)s2)nc2cccc(C)n12` was tested. Which Potency did it give?
**A.** inconclusive: 22.4 µM [inhibitor, partial curve, poor fit]

**Q.** For `CCn1c(SCc2nc3sc(C(=O)O)c(C)c3c(=O)[nH]2)nnc1-c1ccc(Cl)cc1`, which Potency is on record?
**A.** inconclusive: 28.2 µM [inhibitor, full curve, poor fit]

**Q.** How did the activity change, negative = inhibition turn out when `CC(C)NCC(O)COCc1ccc(Cl)cc1` (stereo not given) was run?
**A.** inconclusive: -32.7% [inhibitor]

**Q.** With `O=C(O)CC(SCc1ccc(C(=O)O)o1)C(=O)O` (stereo not given) as the compound, how does the Potency read?
**A.** inconclusive: 0.126 µM [inhibitor, full curve, poor fit]

**Q.** Which Potency does the source give for `CC(=O)Nc1nc2c(s1)CCc1ccccc1-2` here?
**A.** inconclusive: 89.1 µM [inhibitor, single point]

**Q.** With `CCOC(=O)C1=C(CN2CCCCC2)NC(=O)NC1c1cc(C)ccc1C` (stereo not given) as the compound, how does the Potency read?
**A.** inconclusive: 25.1 µM [inhibitor, single point]

**Q.** For `O=C(c1ccc(Cn2c(=S)[nH]c3cc4c(cc3c2=O)OCO4)cc1)N1CCN(c2ccccc2)CC1`, which Potency is on record?
**A.** inconclusive: 89.1 µM [inhibitor, single point]

**Q.** Which Potency does the source give for `Cc1cc(=O)[nH]c2c(C)cc(S(=O)(=O)NCc3ccccc3)cc12` here?
**A.** inconclusive: 79.4 µM [inhibitor, single point]

**Q.** Which Potency does the source give for `Cc1ccc2nc3sc(C(=O)NCc4ccco4)c(N)c3cc2c1` here?
**A.** inconclusive: 14.1 µM [inhibitor, partial curve]

**Q.** `CC1(C)CCC(=O)C=C1Nc1ccc(F)c(Cl)c1` was tested. Which Potency did it give?
**A.** inconclusive: 2 µM [inhibitor, full curve]

**Q.** With `COC(=O)c1ccc(-c2ccc(/C=N/N3C(=O)C4C5C=CC(CC5)C4C3=O)o2)cc1` (stereo not given) as the compound, how does the Potency read?
**A.** inconclusive: 63.1 µM [inhibitor, single point]

**Q.** With `Cc1c(C)c2ccc(OCC(=O)Nc3ccc(S(N)(=O)=O)cc3)c(C)c2oc1=O` as the compound, how does the Potency read?
**A.** active: 31.6 µM

**Q.** With `CCC(C(=O)O)n1c2ccccc2c2cn[nH]c(=O)c21` (stereo not given) as the compound, how does the Potency read?
**A.** active: 22.4 µM

**Q.** With `Cc1cccc(-c2nc3c(c(SCc4ccccc4Cl)n2)Cc2c(CO)cnc(C)c2O3)c1` as the compound, how does the “activity change, negative = inhibition” value read?
**A.** inactive: 11.9%

**Q.** With `Cc1ccc(NS(=O)(=O)c2ccc3c(c2)CC(C)N3C(=O)C2CCC2)cc1Cl` (stereo not given) as the compound, how does the Potency read?
**A.** inconclusive: 0.631 µM [inhibitor, full curve, poor fit]

**Q.** With `COc1ccc2c3c(cccc13)C(=O)N(O)C2=O` as the compound, how does the Potency read?
**A.** active: 35.5 µM

**Q.** For `COc1cc2c(cc1OC)CN(C(=O)Nc1ccccc1Cl)CC2`, which Potency is on record?
**A.** inconclusive: 89.1 µM [inhibitor, single point]

**Q.** How did the activity change, negative = inhibition turn out when `CCOc1ccccc1NC(=O)c1c(NC(=O)C(C)Oc2ccc(Cl)cc2)sc2c1CCCCC2` (stereo not given) was run?
**A.** inconclusive: -43.7% [inhibitor]

**Q.** How did the Potency turn out when `COc1ccc(OC)c(NC(=O)CSc2ccc(-c3ccco3)nn2)c1` was run?
**A.** active: 25.1 µM

**Q.** With `COc1ccc(C(=O)O)cc1NC(=S)NC(=O)C(c1ccccc1)c1ccccc1` as the compound, how does the Potency read?
**A.** inconclusive: 79.4 µM [inhibitor, single point]

**Q.** How did the Potency turn out when `COc1ccc(O)c(/C=N/NC(=O)c2ccc(CSc3nc(C)cc(C)n3)cc2)c1` was run?
**A.** active: 25.1 µM

**Q.** For `CN(C[C@H](Cc1ccccc1)N(C[C@H](Cc1cccc2ccccc12)N(CCc1ccccc1)N=O)N=O)N=O`, which Potency is on record?
**A.** inconclusive: 7.08 µM [inhibitor, full curve, poor fit]

**Q.** How did the Potency turn out when `Cc1c(C(=O)O)cnc2c([N+](=O)[O-])cnn12` was run?
**A.** inconclusive: 22.4 µM [inhibitor, full curve]

**Q.** Which “activity change, negative = inhibition” value does the source give for `COC(=O)c1cc(NC(=O)CC2SC(=Nc3ccccc3)N(CCc3c[nH]c4ccccc34)C2=O)cc(C(=O)OC)c1` (stereo not given) here?
**A.** inactive: 6.47%

**Q.** `COc1ccc(N2C(=O)C(CC(N)=O)N(NC(=O)CCc3ccccc3)C2=O)cc1` (stereo not given) was tested. Which Potency did it give?
**A.** active: 22.4 µM

**Q.** `Cc1nc2c(C(=O)NCCc3ccc(Cl)cc3)c[nH]n2c(=O)c1Cc1ccc(Cl)cc1` was tested. Which Potency did it give?
**A.** active: 22.4 µM

**Q.** With `CC1Cc2ccccc2N1c1ncnc2c1nnn2Cc1ccccc1` (stereo not given) as the compound, how does the Potency read?
**A.** inconclusive: 17.8 µM [inhibitor, partial curve]

**Q.** How did the “activity change, negative = inhibition” value turn out when `CCCCOc1ccc(CN2C(=O)C(=O)c3cc(Br)cc(C)c32)cc1OC` was run?
**A.** inactive: -0.577%

**Q.** For `Cc1cc(-c2ccccc2)nc2cc(C(=O)NCc3ccco3)nn12`, which Potency is on record?
**A.** inconclusive: 15.8 µM [inhibitor, full curve]

**Q.** With `CNC(=O)Cn1cc(S(=O)(=O)Cc2ccccc2F)c2ccccc21` as the compound, how does the “activity change, negative = inhibition” value read?
**A.** inactive: 0.363%

**Q.** With `CN(CCc1ccccn1)c1ccc([N+](=O)[O-])cn1` as the compound, how does the Potency read?
**A.** inconclusive: 79.4 µM [inhibitor, single point]

**Q.** Which “activity change, negative = inhibition” value does the source give for `O=C(/C=C/c1cc[n+](CC(=O)c2ccc3cccc4c3c2CC4)cc1)c1ccc2cccc3c2c1CC3` here?
**A.** inactive: 12.4%

**Q.** Which “activity change, negative = inhibition” value does the source give for `CCOc1ccc(CCNC(=O)c2cnc3sc(N4CCC(C)CC4)nn3c2=O)cc1` here?
**A.** inactive: -2.59%

**Q.** With `CC(C)C[C@H](N)CSSC[C@@H](N)CC(C)C` as the compound, how does the “activity change, negative = inhibition” value read?
**A.** inactive: 11.2% [at 57.1 µM]

**Q.** With `O=C(c1ccc2ccccc2c1)N1CCN(c2ccccn2)CC1` as the compound, how does the Potency read?
**A.** inconclusive: 89.1 µM [inhibitor, single point]

**Q.** With `CCOC(=O)c1ccc(NC(=O)N2CCOc3ccccc32)cc1` as the compound, how does the “activity change, negative = inhibition” value read?
**A.** inactive: -6.84%

**Q.** `CCOc1cc(OCC)cc(C(=O)NC(=S)Nc2cccc(C(F)(F)F)c2)c1` was tested. Which Potency did it give?
**A.** inconclusive: 89.1 µM [inhibitor, single point]

**Q.** With `CCOC(=O)C1CCN(c2c(NCc3ccc(C(=O)NC(C)CC)cc3)c(=O)c2=O)CC1` (stereo not given) as the compound, how does the Potency read?
**A.** inconclusive: 1 µM [inhibitor, full curve, poor fit]

**Q.** Which activity change, negative = inhibition does the source give for `CCc1ccc(O)c(-c2cc(C(=O)Nc3cccnc3)[nH]n2)c1` here?
**A.** inconclusive: -46.6% [inhibitor]

**Q.** How did the Potency turn out when `COc1cccc(NC(=O)N2CCN3CCCCC3C2)c1` (stereo not given) was run?
**A.** inconclusive: 100 µM [inhibitor, single point]

**Q.** `COc1ccccc1NC(=O)c1sc2nc(N3CCOCC3)c3c(c2c1N)CC(C)(C)OC3` was tested. Which “activity change, negative = inhibition” value did it give?
**A.** inactive: 8.67%

**Q.** For `COc1ccc(-c2noc(CSc3nnc(C)n3-c3ccc(OC)cc3)n2)cc1`, which “activity change, negative = inhibition” value is on record?
**A.** inactive: 13.8%

**Q.** For `Cc1nc(SCC(=O)Nc2ccc(Cl)cc2[N+](=O)[O-])nc(C)c1C`, which Potency is on record?
**A.** inconclusive: 100 µM [inhibitor, single point]

**Q.** How did the Potency turn out when `C=CCN1C(=O)C(CC(=O)NCC)SC1=Nc1ccccc1OC` (stereo not given) was run?
**A.** inconclusive: 79.4 µM [inhibitor, single point]

**Q.** `COC(=O)c1cc(O)cc(OC)c1C(=O)c1c(O)cc(C)cc1O` was tested. Which Potency did it give?
**A.** inconclusive: 79.4 µM [inhibitor, single point]
